Measured values from US20170159065A1 (VIB VZW, published 2017).
Results are given in words; binding and its absence hold for the method and conditions named. Some binding calls cover weakened binding; strength is not graded here.

Target: T1, JAZ3 (Arabidopsis, UniProt Q9LVI4 1-352)
T1 construct: Endogenous prey in TAP; Y2H fusion in the yeast assays
T1 sequence (looked up): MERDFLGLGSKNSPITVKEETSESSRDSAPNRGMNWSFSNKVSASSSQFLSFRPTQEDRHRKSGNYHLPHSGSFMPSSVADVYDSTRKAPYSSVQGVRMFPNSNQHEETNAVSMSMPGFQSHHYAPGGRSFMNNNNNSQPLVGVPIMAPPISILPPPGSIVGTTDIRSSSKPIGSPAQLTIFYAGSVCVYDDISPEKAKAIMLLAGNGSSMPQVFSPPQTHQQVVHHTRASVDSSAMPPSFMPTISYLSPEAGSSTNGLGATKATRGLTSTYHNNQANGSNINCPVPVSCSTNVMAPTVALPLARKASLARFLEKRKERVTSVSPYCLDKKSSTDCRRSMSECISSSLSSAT
Test: yeast two-hybrid with truncated versions of PPD2

binding: binds
Binder: TNAVVGQMTIFYSGKVNVYDGVPPEKARSIMHFAAN (peptide, Arabidopsis thaliana, UniProt Q8GY55 151-186, looked up) [PPD2 ZIM domain (truncated version of PPD2)]
